# Results published in the supplement of paper PMC8728848.
# The other results are listed elsewhere or left out.
# B1: Epa3to2 (Candida glabrata) (protein)
# chain: MGSSHHHHHHSSGLVPRGSHMKRELSSQNPFGYPIGCSPQDVAIIPGLTMELYSYPIVSGTPPNCYDASYVDPEYPRTGYLKRKMVGKSTGVTGNLNYKYSVEKACMVKYGNLPAGYNYNEPLTVSNFTMILYGYFKAQTTGLHTFFVNADDLLYINFGAGNAFDCCKREDSKTKLGEYVAYDIWHVDSSKNKVSLFLEKDLYYPIRMFFNNRDNNSSLDLSFSVNGATDQISDFSGYLYSVPDQPDTCPAHIGYDTTCR
# Key:
# [1] = target: Neu5Gc(a2-8)Neu5Gc(a2-6)Gal(b1-4)GlcNAc; assay: glycan array binding signal (z-score within array); higher = stronger binding; conditions: glycan notation: IUPAC condensed, linker removed
# Method in brief: (§1)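 Glycan array binding is given as a within-array Z-score, which can be read as non-binding when negative. The arrays, 3228 of them, came from the Consortium for Functional Glycomics database and were retained only where the protein sequence was available. Z-scores were averaged across arrays of the same protein sequence at different concentrations or buffers and across linkers.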
# [2] = target: Neu5Gc(b2-6)Gal(b1-4)GlcNAc; assay: as above; conditions: glycan notation: IUPAC condensed, linker removed
# Method in brief: as §1
binder,measurement,setting,value
B1,glycan array binding signal (z-score),[1],-0.432
same,glycan array binding signal (z-score),[2],-0.999
